In US8129365B2, “Water-soluble, fluorescent compounds for detection of potassium ions” (The Regents of the University of California, priority 2005, dated 2012):

Tested on: brain cortex ECS
Experiment: TAC-Red [K^+]o measurements in brain cortex (spreading depression)
Format: in vivo, mice
Procedure: TAC-Red [K^+]o measurements in brain cortex. Wildtype and AQP4 null mice in a CD1 genetic background (30-35 g body weight/age 10-12 weeks) were used (described in Ma et al. Ma et al. J. Clin. Invest. 100, 957-962 (1997)). These mice are phenotypically normal at baseline and have normal brain architecture; however they manifest altered brain swelling in response to cytotoxic and vasogenic forms of edema. Mice were anesthetized with 2,2,2-tribromoethanol (125 mg/kg, intraperitoneal (ip)) and the head was immobilized in a standard mouse stereotactic frame. Body temperature was maintained at 36-37° C. using a heating pad. The skull was exposed by a midline skin incision. A 2.7 mm diameter circular area of the thin, semi-translucent skull bone located 0.5 mm lateral to the midline and 1 mm posterior to the bregma was removed using a microdrill under microscope to expose intact dura with underlying brain. […]
Fluorescence was measured using a 1.6× objective lens (working distance 24 mm, numerical aperture 0.21), and custom filter set for TAC-Red (HQ, Chroma). […] Fluorescence was imaged using a 14-bit 1024×1024 pixel cooled CCD camera (CoolSnap HQ, Photometrics). […]
Image analysis. […] Half-times (t1/2) for the increasing and decreasing phases of TAC-Red fluorescence were determined by exponential regression analysis. […]
The ECS of mouse brain was stained with TAC-Red by exposing the intact dura (after craniectomy) for 5 minutes to an artificial cerebrospinal fluid (aCSF) solution containing 50 μM TAC-Red. […] This transdural dye labeling approach was developed previously to stain the ECS with fluorescent dextrans for photobleaching measurements (Binder et al. J. Neurosci. 24, 8049-8056 (2004). The TAC-red-stained brain cortex was brightly red fluorescent, with fairly uniform parenchymal staining but no staining of blood vessels. There was little influence of cerebral blood flow on the signal, with less than 2% change in TAC-Red fluorescence when mice breathed 0 vs. 5% CO2.

Question: With `COCCOc1cc(-c2c3ccc(=[N+](C)C)cc-3oc3cc(N(C)C)ccc23)ccc1N1CCOc2cc(C)ccc2N2CCOCCOCCN(CCOCCOCC2)c2ccc(C)cc2OCC1.[Cl-]` [TAC-Red, {6-Dimethylamino-9-[4-(6,7,9,10,12,13,20,21,23,24-decahydro-2,17-dimethyl-5,14-(ethanoxyethanoxyethano)-5H,14H,22H-dibenzo[h,q][1,4,10,16,7,13,19]tetraoxatriazacyclo-heneicosin-22-yl)-3-(2-methoxyethoxy)phenyl]xanthen-3-ylidene}dimethylammonium chloride] as the compound, how does the “K^+ wave propagation velocity” value (SE, n=4 mice, from temporal offset in fluorescence profiles) read?
Answer: Its value is 4.4±0.5 mm/min.

Question: What about the “Change in TAC-Red fluorescence with cerebral blood flow” value (mice breathed 0 vs. 5% CO2) of the same compound?
Answer: The value was “less than 2%”.

Question: Which “Signal changes during spreading depression” value (non-K^+-sensitive dye used in place of TAC-Red) does the source give for `O=S(=O)([O-])c1cc(S(=O)(=O)O)ccc1C1=c2cc3c4c(c2Oc2c1cc1c5c2CCCN5CCC1)CCC[N+]=4CCC3` [sulforhodamine 101, reference compound] here?
Answer: The value was “no signal changes”.
